Source: the supplement of paper PMC10849652
Some of the results follow.

Amino acid sequences for entries named in this document (tags omitted). A change or cut given only in a name is not applied to a line headed by its entry.
UniProt Q9H3H3: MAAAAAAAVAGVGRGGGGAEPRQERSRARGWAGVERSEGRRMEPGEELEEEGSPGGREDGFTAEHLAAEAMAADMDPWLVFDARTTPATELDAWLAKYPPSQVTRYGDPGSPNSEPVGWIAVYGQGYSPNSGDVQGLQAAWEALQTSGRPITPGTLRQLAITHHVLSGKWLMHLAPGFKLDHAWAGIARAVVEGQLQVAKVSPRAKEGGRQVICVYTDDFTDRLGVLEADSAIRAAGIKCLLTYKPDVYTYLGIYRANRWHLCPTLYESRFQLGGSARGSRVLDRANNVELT
UniProt Q86VP6: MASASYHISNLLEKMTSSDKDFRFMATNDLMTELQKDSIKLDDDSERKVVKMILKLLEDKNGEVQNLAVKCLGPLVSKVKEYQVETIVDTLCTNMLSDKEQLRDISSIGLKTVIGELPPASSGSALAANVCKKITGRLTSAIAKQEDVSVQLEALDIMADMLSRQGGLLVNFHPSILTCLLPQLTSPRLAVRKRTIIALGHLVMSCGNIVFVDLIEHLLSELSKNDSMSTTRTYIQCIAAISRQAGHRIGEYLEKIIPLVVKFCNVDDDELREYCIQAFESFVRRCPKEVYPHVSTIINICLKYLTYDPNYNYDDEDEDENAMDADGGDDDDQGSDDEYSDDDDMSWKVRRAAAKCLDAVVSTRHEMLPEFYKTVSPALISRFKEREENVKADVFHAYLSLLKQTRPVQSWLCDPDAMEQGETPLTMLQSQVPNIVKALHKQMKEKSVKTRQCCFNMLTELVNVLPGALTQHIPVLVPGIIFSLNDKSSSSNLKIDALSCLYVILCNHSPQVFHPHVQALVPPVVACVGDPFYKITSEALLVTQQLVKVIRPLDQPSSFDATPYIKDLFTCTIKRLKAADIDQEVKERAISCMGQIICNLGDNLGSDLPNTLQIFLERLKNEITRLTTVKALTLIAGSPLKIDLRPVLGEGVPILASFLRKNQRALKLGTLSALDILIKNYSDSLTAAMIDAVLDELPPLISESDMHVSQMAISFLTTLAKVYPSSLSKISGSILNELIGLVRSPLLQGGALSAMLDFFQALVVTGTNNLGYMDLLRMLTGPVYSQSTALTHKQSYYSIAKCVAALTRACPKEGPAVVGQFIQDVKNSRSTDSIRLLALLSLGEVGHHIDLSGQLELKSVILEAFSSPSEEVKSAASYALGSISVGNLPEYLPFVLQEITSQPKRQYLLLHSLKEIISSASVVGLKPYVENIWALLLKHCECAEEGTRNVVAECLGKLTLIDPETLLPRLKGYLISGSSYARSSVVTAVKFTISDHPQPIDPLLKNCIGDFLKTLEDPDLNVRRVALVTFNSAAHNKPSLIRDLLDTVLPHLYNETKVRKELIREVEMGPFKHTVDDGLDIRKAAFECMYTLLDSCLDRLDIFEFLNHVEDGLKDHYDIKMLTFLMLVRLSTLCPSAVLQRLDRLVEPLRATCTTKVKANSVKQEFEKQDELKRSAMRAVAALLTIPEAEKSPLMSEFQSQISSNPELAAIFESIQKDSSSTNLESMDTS
UniProt Q32NC0: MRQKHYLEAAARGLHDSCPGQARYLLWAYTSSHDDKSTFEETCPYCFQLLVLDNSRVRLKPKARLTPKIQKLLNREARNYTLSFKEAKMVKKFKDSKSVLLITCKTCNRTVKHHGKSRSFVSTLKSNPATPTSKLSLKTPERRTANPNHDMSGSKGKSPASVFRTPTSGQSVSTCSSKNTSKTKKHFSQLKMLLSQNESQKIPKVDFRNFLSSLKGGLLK
UniProt Q8N8R5: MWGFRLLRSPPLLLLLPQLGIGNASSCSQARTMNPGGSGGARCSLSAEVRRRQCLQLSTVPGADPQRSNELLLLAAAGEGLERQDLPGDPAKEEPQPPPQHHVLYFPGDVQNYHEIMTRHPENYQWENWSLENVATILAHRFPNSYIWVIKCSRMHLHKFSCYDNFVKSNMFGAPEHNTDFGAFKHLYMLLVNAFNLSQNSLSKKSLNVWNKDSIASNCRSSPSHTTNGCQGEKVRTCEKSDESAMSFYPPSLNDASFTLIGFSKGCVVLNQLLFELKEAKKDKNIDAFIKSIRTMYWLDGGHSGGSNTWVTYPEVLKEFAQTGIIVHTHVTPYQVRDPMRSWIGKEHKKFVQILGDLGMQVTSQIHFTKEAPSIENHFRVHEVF
UniProt Q9Y297: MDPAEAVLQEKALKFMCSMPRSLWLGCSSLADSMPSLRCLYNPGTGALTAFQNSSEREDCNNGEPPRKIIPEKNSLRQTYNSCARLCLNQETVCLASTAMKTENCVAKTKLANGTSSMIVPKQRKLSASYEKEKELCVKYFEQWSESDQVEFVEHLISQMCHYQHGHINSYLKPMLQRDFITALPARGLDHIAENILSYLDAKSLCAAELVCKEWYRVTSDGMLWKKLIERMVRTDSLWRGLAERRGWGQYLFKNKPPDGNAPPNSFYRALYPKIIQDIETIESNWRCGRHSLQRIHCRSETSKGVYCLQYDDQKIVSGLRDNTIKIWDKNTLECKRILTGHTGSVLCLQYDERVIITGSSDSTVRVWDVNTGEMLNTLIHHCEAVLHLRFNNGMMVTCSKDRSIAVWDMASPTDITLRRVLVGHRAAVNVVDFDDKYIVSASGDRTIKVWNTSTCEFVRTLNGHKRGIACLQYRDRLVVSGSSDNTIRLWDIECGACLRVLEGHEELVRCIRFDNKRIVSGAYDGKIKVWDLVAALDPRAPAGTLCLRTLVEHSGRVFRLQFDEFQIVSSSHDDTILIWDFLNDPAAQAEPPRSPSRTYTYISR
UniProt Q49AR2: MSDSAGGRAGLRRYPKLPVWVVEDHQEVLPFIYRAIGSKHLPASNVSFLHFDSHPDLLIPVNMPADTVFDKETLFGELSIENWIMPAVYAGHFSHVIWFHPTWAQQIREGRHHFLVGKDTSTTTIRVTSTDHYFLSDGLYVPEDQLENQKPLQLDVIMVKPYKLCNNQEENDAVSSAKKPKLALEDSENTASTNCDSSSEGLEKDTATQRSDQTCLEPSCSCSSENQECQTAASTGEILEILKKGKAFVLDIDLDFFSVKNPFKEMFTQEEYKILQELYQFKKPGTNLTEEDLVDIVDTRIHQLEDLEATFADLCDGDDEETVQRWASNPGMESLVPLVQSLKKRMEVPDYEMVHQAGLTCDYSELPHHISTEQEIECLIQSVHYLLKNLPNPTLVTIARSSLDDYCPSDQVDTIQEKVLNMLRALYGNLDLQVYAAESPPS
UniProt Q8N999, whole entry, looked up: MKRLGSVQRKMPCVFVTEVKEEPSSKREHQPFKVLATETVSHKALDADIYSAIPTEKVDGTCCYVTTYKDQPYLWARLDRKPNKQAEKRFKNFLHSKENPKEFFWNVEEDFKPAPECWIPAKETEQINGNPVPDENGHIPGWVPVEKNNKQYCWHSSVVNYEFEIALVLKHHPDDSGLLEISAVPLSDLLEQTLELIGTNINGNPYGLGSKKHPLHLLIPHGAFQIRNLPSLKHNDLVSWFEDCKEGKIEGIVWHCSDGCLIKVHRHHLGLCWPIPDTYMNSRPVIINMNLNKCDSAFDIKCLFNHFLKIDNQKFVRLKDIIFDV
UniProt Q07021: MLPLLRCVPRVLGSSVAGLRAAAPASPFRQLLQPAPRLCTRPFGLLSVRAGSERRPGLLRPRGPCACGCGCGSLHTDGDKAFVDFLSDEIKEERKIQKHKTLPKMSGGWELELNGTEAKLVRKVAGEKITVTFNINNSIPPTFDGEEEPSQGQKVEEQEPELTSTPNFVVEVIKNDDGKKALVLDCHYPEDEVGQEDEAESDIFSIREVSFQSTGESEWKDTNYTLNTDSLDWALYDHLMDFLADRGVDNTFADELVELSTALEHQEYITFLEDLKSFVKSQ
UniProt Q7Z7L8: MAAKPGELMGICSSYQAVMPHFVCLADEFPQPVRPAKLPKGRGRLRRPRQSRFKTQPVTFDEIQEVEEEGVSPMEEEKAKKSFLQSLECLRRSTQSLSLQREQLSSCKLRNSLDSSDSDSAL
UniProt Q9H7E9: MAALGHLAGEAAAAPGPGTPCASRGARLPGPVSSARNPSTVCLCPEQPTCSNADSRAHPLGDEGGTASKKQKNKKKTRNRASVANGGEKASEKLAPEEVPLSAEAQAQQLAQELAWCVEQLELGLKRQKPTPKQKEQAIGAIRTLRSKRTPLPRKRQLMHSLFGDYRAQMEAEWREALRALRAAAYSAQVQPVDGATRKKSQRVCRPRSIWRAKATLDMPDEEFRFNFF
UniProt Q7Z4R8: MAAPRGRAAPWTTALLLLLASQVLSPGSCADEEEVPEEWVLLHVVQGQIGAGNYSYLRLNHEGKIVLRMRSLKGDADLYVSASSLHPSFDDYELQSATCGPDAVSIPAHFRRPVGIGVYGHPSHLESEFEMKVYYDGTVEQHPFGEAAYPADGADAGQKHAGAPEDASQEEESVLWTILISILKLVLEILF
UniProt Q9BV19: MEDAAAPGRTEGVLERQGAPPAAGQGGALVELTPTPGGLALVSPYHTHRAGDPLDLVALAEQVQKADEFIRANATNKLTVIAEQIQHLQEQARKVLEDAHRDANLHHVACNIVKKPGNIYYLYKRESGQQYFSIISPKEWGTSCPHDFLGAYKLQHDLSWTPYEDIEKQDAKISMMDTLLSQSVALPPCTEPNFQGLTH
UniProt Q6ZSJ8: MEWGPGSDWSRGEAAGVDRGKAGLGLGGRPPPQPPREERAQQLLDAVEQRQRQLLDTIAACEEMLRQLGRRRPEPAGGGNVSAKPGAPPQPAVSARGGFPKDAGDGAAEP
UniProt Q9BXL7: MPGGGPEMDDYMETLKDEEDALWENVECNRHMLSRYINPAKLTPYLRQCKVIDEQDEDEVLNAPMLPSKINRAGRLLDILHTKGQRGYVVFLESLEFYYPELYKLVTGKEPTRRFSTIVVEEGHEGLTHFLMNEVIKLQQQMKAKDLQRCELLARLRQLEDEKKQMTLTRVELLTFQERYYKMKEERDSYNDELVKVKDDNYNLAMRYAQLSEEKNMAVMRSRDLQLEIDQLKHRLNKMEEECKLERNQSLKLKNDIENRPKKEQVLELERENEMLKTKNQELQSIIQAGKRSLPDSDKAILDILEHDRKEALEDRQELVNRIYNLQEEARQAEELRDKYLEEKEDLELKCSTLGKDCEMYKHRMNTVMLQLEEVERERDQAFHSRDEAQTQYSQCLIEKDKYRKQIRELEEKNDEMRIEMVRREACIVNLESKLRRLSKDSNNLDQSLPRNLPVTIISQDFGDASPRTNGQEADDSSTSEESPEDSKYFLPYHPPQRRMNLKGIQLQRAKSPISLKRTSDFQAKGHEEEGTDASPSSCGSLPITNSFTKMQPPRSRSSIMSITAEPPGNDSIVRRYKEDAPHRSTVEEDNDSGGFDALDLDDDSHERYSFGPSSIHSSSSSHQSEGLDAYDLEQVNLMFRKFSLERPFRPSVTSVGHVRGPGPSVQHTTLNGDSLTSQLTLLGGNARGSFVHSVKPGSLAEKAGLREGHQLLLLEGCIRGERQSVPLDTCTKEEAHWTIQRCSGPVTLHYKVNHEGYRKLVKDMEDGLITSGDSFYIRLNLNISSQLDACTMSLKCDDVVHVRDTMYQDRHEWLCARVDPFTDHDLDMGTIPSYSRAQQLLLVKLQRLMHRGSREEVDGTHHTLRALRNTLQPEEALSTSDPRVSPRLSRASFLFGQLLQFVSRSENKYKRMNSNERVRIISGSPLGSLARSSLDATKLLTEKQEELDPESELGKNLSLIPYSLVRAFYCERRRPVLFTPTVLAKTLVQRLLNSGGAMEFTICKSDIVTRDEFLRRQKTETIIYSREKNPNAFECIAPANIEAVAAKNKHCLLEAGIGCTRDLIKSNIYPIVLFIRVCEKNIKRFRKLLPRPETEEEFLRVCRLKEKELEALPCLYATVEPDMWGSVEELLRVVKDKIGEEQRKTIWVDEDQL
UniProt Q9HB71, whole entry, looked up: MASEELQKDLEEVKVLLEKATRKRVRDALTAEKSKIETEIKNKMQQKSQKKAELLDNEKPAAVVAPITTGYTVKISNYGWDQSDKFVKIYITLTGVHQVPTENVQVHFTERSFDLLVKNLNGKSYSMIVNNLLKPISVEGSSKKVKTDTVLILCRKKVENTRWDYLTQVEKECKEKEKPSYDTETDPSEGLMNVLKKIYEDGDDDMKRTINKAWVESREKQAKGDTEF
UniProt P00915: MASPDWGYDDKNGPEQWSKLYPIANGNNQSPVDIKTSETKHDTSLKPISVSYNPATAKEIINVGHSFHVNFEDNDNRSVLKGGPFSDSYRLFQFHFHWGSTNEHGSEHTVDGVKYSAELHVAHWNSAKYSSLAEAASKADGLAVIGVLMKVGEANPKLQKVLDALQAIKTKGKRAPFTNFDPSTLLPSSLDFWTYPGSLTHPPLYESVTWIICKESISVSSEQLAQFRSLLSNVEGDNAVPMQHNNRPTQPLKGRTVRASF
UniProt P49069: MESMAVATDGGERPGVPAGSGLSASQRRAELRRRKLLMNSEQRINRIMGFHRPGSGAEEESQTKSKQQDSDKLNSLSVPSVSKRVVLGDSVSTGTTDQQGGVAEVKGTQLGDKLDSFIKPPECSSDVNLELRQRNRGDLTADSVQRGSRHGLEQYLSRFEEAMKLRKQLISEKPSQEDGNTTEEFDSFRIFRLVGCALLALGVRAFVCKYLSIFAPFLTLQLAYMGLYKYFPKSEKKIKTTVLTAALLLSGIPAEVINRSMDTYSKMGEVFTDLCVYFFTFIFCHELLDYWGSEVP

The targets below were run with C1=CC=C(C=C1)[C@H](COC2=CC3=C(C=C2)NC(=O)N3)NC(=O)C4=CC=CN(C4=O)CC5=CC(=C(C=C5)F)F (assay: log2 fold change, soluble protein after heating vs DMSO (PISA); higher = thermal stabilisation; K562 lysate, 10 uM; active = over 0.2 and 3.5 SD of the protein, either way, in both replicates (recomputed)).
Summary of the method: (§1)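 Following dounce homogenisation of K562 pellets in PBS pH 7.4 with 1 mM MgCl2, crude extract at 1 mg/mL protein was incubated for 30 min with 10 μM compound. Aliquots were then heated for 3 min over 48°C-58°C and pooled, NP-40 was added to 0.5% at 4°C, and soluble protein was recovered as the supernatant at 21,000xg for 90 min. Channel-sum-equalised TMTpro 16plex LC-MS/MS quantified this protein. Each value, from duplicates, is a log-two fold change in thermal stability relative to solvent controls.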

Row | Target | log2 fold change
1 | C18orf32 (UniProt Q8TCD1) | inactive: 0.039
2 | C11orf68 isoform 3 (UniProt Q9H3H3) | inactive: -0.007
3 | BZW1 isoform 3 (UniProt Q7L1Q6) | inactive: -0.038
4 | CAB39L (UniProt Q9H9S4) | inactive: 0.005
5 | CAPN2 (UniProt P17655) | inactive: 0.038
6 | C7orf26 (UniProt Q96N11) | inactive: -0.131
7 | CAND1 (UniProt Q86VP6) | inactive: 0.024
8 | C18orf25 isoform 2 (UniProt Q96B23) | inactive: -0.005
9 | C18orf21 (UniProt Q32NC0) | inactive: 0.085
10 | C2orf69 (UniProt Q8N8R5) | inactive: 0.017
11 | BTRC (UniProt Q9Y297) | inactive: 0.024
12 | C9orf85 isoform 1 (UniProt Q96MD7) | inactive: 0.046
13 | CAPN7 (UniProt Q9Y6W3) | inactive: 0.008
14 | BZW2 (UniProt Q9Y6E2) | inactive: -0.046
15 | C12orf73 (UniProt Q69YU5) | inactive: 0.129
16 | CAPZA1 (UniProt P52907) | inactive: 0.042
17 | C5orf22 (UniProt Q49AR2) | inactive: 0.031
18 | C12orf29 (UniProt Q8N999) | inactive: -0.098
19 | C1QBP (UniProt Q07021) | inactive: 0.005
20 | C22orf39 (UniProt Q6P5X5) | inactive: 0.01

Row | Target | log2 fold change
21 | CA13 (UniProt Q8N1Q1) | inactive: -0.009
22 | C11orf96 (UniProt Q7Z7L8) | inactive: 0.167
23 | C8orf33 isoform 2 (UniProt Q9H7E9) | inactive: 0
24 | C6orf120 (UniProt Q7Z4R8) | inactive: -0.101
25 | CA8 (UniProt P35219) | inactive: -0.03
26 | CAND1 (UniProt F5H6I6) | inactive: -0.015
27 | C9orf64 (UniProt Q5T6V5) | inactive: 0.022
28 | C1orf50 (UniProt Q9BV19) | inactive: -0.031
29 | CALM2 (UniProt P0DP24) | inactive: -0.07
30 | C2orf76 (UniProt Q3KRA6) | inactive: -0.033
31 | C7orf25 isoform 2 (UniProt Q9BPX7) | inactive: -0.138
32 | CAD (UniProt P27708) | inactive: -0.011
33 | C2orf49 (UniProt Q9BVC5) | inactive: 0.023
34 | C1orf122 (UniProt Q6ZSJ8) | inactive: 0.075
35 | C8orf88 (UniProt P0DMB2) | inactive: 0.033
36 | CARD11 (UniProt Q9BXL7) | inactive: 0.193
37 | CACYBP (UniProt Q9HB71) | inactive: 0.024
38 | CA1 (UniProt P00915) | inactive: 0.016
39 | CAMLG (UniProt P49069) | inactive: 0.058
40 | BYSL (UniProt Q13895) | inactive: -0.046

What follows are targets tested with CC1=C(SC2=C1C(=N[C@H](C3=NN=C(N32)C)CC(=O)N)C4=CC=C(C=C4)Cl)C in the same assay as above.
Summary of the method: as §1

Row | Target | log2 fold change
41 | C18orf32 (UniProt Q8TCD1) | inactive: 0.004
42 | C11orf68 isoform 3 (UniProt Q9H3H3) | inactive: 0.003
43 | BZW1 isoform 3 (UniProt Q7L1Q6) | inactive: 0.014
44 | CAB39L (UniProt Q9H9S4) | inactive: 0.004
45 | CAPN2 (UniProt P17655) | inactive: 0.013
46 | C7orf26 (UniProt Q96N11) | inactive: 0.153
47 | CAND1 (UniProt Q86VP6) | inactive: 0.006
48 | C18orf25 isoform 2 (UniProt Q96B23) | inactive: 0.224
49 | C18orf21 (UniProt Q32NC0) | inactive: -0.03
50 | C2orf69 (UniProt Q8N8R5) | inactive: -0.024
51 | BTRC (UniProt Q9Y297) | inactive: -0.042
52 | C9orf85 isoform 1 (UniProt Q96MD7) | inactive: -0.063
53 | CAPN7 (UniProt Q9Y6W3) | inactive: -0.015
54 | BZW2 (UniProt Q9Y6E2) | inactive: 0
55 | C12orf73 (UniProt Q69YU5) | inactive: -0.103
56 | CAPZA1 (UniProt P52907) | inactive: 0.02
57 | C5orf22 (UniProt Q49AR2) | inactive: -0.034
58 | C12orf29 (UniProt Q8N999) | inactive: 0.071
59 | C1QBP (UniProt Q07021) | inactive: -0.025
60 | C22orf39 (UniProt Q6P5X5) | inactive: -0.004

Row | Target | log2 fold change
61 | CA13 (UniProt Q8N1Q1) | inactive: 0.04
62 | C11orf96 (UniProt Q7Z7L8) | inactive: -0.021
63 | C8orf33 isoform 2 (UniProt Q9H7E9) | inactive: 0.008
64 | C6orf120 (UniProt Q7Z4R8) | inactive: -0.015
65 | CA8 (UniProt P35219) | inactive: -0.022
66 | CAND1 (UniProt F5H6I6) | inactive: 0.117
67 | C9orf64 (UniProt Q5T6V5) | inactive: -0.006
68 | C1orf50 (UniProt Q9BV19) | inactive: 0.11
69 | CALM2 (UniProt P0DP24) | inactive: -0.177
70 | C2orf76 (UniProt Q3KRA6) | inactive: -0.054
71 | C7orf25 isoform 2 (UniProt Q9BPX7) | inactive: 0.067
72 | CAD (UniProt P27708) | inactive: 0.009
73 | C2orf49 (UniProt Q9BVC5) | inactive: 0
74 | C1orf122 (UniProt Q6ZSJ8) | inactive: 0.038
75 | C8orf88 (UniProt P0DMB2) | inactive: 0.051
76 | CARD11 (UniProt Q9BXL7) | inactive: 0.252
77 | CACYBP (UniProt Q9HB71) | inactive: 0.002
78 | CA1 (UniProt P00915) | inactive: 0.001
79 | CAMLG (UniProt P49069) | inactive: 0.003
80 | BYSL (UniProt Q13895) | inactive: 0.011
